The record followed here is patent US11442059B2, “Method for treating a chronic itch condition by administering small molecule MrgprX4 antagonists” (The Johns Hopkins University, priority 2017, dated 2022).

No constants are given. Whether binding was seen depends on the method and setting. Some binding calls cover weakened binding; strength is not graded here.

The assay deals with T1, C11 (mouse) (UniProt Q8CIP3).
T1 sequence (receptor, looked up): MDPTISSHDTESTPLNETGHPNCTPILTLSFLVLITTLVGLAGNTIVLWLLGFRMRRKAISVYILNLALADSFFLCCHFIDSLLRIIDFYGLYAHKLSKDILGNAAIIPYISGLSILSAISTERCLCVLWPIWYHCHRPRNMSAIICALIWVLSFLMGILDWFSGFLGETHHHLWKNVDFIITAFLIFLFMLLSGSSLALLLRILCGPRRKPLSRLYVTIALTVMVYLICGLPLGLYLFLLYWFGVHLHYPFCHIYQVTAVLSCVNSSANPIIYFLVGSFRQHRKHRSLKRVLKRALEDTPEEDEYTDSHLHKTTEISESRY
As to the kind of experiment: microscale thermophoresis binding isotherm (T-Jump), GFP-tagged MRGPRC11 membrane fraction, mean of 3 experiments [panel n]. (In MST a laser heats a spot of the sample, and binding alters the fluorescence response.)

In the case of VGRPEWWMDYQKRYG [BAM8-22], the binding result is reported as “binds”.
